Data published in patent US20260297094A1, “Tetracyclic Compounds as SMARCA2 and/or SMARCA4 Degraders” (Aurigene Oncology Limited, priority 2023, published 2026).
The name of at least one read-out is uncertain.

The chains behind the UniProt entries cited, without tags or fusion partners.
UniProt P51531, whole entry: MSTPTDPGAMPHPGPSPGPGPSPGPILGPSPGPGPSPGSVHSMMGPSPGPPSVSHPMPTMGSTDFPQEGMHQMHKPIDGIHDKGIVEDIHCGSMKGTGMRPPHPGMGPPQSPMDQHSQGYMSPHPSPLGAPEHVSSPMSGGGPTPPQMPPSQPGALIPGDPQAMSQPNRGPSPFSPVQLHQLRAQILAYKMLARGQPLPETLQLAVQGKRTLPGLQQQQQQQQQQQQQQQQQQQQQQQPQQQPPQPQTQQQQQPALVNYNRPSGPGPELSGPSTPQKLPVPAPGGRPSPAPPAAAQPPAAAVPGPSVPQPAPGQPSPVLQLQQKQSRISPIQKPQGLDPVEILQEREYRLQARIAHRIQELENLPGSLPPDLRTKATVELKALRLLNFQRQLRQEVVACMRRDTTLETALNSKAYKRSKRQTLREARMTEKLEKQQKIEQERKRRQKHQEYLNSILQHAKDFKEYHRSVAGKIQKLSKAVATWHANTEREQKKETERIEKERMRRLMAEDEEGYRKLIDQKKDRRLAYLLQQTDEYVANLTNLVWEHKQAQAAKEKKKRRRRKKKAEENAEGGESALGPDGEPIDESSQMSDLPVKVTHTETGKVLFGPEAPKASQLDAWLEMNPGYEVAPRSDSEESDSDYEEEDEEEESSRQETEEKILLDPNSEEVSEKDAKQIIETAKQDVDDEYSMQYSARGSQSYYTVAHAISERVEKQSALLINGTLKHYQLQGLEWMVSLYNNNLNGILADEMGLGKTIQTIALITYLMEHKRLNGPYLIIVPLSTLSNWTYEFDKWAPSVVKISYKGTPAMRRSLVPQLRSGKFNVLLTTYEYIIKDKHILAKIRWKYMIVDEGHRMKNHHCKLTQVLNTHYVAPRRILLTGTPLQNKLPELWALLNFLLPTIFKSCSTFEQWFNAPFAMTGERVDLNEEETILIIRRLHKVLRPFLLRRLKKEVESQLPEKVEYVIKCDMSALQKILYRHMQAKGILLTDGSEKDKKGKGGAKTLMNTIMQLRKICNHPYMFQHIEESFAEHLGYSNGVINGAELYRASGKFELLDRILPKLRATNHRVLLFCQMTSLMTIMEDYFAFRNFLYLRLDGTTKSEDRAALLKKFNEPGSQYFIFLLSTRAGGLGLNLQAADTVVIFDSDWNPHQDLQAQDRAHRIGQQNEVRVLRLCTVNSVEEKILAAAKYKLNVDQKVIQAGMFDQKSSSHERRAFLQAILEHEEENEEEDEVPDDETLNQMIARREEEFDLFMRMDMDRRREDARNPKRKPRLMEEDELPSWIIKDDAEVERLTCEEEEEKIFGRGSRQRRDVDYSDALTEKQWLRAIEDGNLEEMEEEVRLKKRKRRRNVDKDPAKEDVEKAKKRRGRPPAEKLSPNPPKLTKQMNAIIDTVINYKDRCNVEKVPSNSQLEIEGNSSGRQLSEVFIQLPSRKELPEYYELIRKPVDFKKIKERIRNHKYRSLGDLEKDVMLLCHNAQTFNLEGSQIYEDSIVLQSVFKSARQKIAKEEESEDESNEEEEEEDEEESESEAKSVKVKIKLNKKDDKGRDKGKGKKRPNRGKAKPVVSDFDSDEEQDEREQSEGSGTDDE
UniProt P51532, whole entry: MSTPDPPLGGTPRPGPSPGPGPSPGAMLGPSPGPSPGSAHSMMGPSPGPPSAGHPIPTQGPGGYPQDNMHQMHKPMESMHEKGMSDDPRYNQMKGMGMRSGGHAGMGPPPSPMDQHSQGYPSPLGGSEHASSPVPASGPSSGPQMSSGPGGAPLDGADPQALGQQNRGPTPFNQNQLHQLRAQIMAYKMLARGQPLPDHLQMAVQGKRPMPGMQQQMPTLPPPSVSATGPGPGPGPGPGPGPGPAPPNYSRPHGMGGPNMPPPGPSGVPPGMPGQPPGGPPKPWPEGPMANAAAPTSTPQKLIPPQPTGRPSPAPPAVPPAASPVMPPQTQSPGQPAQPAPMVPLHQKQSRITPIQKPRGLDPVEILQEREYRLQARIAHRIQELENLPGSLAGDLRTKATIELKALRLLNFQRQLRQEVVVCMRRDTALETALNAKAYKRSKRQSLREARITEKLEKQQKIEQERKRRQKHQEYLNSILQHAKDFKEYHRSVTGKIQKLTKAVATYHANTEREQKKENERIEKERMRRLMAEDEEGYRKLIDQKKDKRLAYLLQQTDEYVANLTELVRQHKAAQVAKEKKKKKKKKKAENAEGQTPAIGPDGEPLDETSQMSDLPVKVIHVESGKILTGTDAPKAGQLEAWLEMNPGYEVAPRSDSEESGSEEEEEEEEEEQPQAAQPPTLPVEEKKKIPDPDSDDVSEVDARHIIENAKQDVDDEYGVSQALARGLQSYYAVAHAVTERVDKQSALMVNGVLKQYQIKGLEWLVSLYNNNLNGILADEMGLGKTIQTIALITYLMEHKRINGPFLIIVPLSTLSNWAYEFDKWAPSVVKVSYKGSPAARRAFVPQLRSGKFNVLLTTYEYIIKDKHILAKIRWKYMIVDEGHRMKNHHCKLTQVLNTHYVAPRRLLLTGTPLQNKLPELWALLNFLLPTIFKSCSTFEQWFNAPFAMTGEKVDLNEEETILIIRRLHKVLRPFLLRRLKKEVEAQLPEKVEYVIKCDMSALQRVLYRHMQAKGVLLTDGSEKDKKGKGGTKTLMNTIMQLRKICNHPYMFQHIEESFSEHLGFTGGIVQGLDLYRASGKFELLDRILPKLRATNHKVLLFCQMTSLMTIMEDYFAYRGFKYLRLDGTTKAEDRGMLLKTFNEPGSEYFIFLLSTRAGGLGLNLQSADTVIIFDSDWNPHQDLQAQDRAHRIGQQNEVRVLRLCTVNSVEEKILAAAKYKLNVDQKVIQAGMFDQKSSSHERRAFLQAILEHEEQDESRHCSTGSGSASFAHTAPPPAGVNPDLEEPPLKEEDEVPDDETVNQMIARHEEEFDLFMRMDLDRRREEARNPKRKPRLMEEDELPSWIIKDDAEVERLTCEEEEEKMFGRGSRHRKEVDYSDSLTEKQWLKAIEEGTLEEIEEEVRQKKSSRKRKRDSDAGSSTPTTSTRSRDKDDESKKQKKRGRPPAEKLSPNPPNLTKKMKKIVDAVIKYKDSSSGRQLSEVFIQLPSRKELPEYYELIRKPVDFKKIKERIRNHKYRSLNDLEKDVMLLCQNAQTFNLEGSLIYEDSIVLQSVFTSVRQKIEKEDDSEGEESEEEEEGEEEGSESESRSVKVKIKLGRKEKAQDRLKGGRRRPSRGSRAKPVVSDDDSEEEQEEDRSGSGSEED

Columns and labels:
SMARCA2 = target: T1, SMARCA2 (Homo sapiens, UniProt P51531); test: SMARCA2 degradation in MV-4-11 cells by Western blot; format: cell-based; conditions: at 100 nM, 16 hours, vs DMSO, 960 min, 0.1 µM
T1 construct: endogenous in cells; host or cells: MV-4-11 (CRL-9591)
Protocol: (§1) Example-P3: Determination of SMARCA2 and SMARCA4 Degradation in MV-4-11 Cells by Western Blot
(§2) MV-4-11 (CRL-9591™) cells were plated in 6 well plates using complete Iscove's Modified Dulbecco's Medium. On the third day, compounds of present invention were added to cells from 10 mM stocks made in DMSO (Sigma Cat no. D2650). Each concentration of compound was tested with DMSO not exceeding final percentage of 0.1 in the cells. Cells were incubated with the compound for 16 hours followed by harvesting with 1×RIPA lysis buffer (Thermo Fischer, catalogue number #89900) containing protease inhibitor cocktail (Sigma catalogue number #P-8340). Equal amount of protein was loaded on SDS PAGE gel for electrophoresis. Western blot was carried out for detection of either SMARCA2 (Cell signalling technologies, catalogue number #11966) or SMARCA4 antibody (Cell signalling technologies, catalogue number #52251). Beta-Tubulin antibody (Cell signalling technologies, catalogue number #86298) was used as loading control. Percentage of SMARCA2 or SMARCA4 degradation was calculated using formula % Degradation=100−(normalized band intensity in treated sample/normalized band intensity in DMSO sample)*100. Here, “ND” refers to Not determined.

SMARCA4 = target: T2, SMARCA4 (Homo sapiens, UniProt P51532); test: SMARCA4 degradation in MV-4-11 cells by Western blot; format: cell-based; conditions: at 100 nM, 16 hours, vs DMSO
T2 construct: endogenous in cells; host or cells: MV-4-11 (CRL-9591)
Protocol: as §1, §2

## O=C1CCC(Nc2ccc(C3CCN(C4CCN(c5ccc6c(c5)n(C5CCCC5)c5nc(=O)c7c(Cl)cccc7n65)CC4)CC3)c(F)c2)C(=O)N1 (centres unmarked) [Compound 38, 3-((4-(1′-(4-chloro-7-cyclopentyl-5-oxo-5,7-dihydrobenzo[4,5]imidazo[1,2-a]quinazolin-9-yl)-[1,4′-bipiperidin]-4-yl)-3-fluorophenyl)amino)piperidine-2,6-dione]
SMARCA2
  Percent degradation SMARCA2: 98%
SMARCA4
  Percent degradation SMARCA4: 98%
